# Source: patent US12023336B2, “Antiviral drug compounds and composition thereof” (priority 2018, dated 2024)
# Test system: HIV-1NL4.3
# Format: cell-based
# Procedure: TZM-bl cells were seeded at the density of 12,000-15,000 cells/well of 96 well plate with 100 μL DMEM (with 10% FBS) in each well. 12-hours post seeding, the media was replaced with fresh DMEM containing HTV-1NL4.3 at 0.1 MOI and cells were treated with different molecules independently at 10 μM working concentration. Cells were incubated in humidified CO2 incubator for 4-hours. After incubation, the media was replaced and cells were washed twice with incomplete DMEM and 100 μL of complete DMEM was added in each wells along with the molecules of interest and incubated at 37° C. in humidified CO2 incubator. 48-hours post incubation, the media was removed and cells were washed twice with 100 μL of 1×PBS. After washing, cells were lysed using cell culture lysis reagent and Steady-Glo substrate was added at 1:1 ration in each well. Luminescence was measured using Molecular Devices M5 (Table 2). % Inhibition was calculated using following formula and plotted.
# [formula] (RLU=Relative Luminescence Unit)
smiles,measurement,value
O=C1NC(=O)c2c1c(-c1ccccc1)cc1[nH]c3ccc(O)cc3c21 [PD-407824],% Inhibition at 10 μM Concentration,99.78%
